± gives the standard deviation of the averaged measurements. In all, about 3,800 compounds were measured (“cell shape (eccentricity) Z-score vs DMSO control”: median about 1.1, lowest 2% from about -4.7 on). Some of the results follow.
test system: human monocyte-derived macrophages (M0); assay: cell shape (eccentricity) Z-score vs DMSO control; higher = more elongated, M2-like morphology; conditions: 20 µM; 24 h; macrophage state: M0 (M-CSF)

SMILES	cell shape (Z-score)
Cc1ccc(CC2(O)CCN(CCOc3ccc(O)cc3)CC2)cc1	1.75
CC1(O)C(O)C(CO)OC1n1cnc2c(NC3CCCC3)nc(Cl)nc21 (centres undefined)	2.53
COc1cc2nc(N3CCCN(C)CC3)nc(NC3CCN(Cc4ccccc4)CC3)c2cc1OC	3.25
CSC(=O)OCC1=C[C@@H]2OC(=O)C3=CO[C@@H](O[C@@H]4O[C@H](CO)[C@@H](O)[C@H](O)[C@H]4O)[C@H]1[C@@H]32	1.25
CC(=O)OCC1=C[C@H](O)[C@@H]2C(C(=O)O)=CO[C@@H](O[C@@H]3O[C@H](CO)[C@@H](O)[C@H](O)[C@H]3O)[C@H]12	-1.17
Cc1cc(O)c(C(=O)N[C@@H](C(=O)N[C@@H]2C(=O)N3C(C(=O)O)=C(CSc4nnnn4C)CS[C@H]23)c2ccc(O)cc2)cn1	2.09
C[C@]12CCC(=O)C=C1CCC1C2[C@@H](O)C[C@@]2(C)C1CC[C@]2(O)C(=O)CO (some centres undefined)	-1.04
O=C1C(=O)N(Cc2ccc(Cl)c(Cl)c2)c2ccccc21	-0.0499
COC1=CC(=O)O[C@@H](CCc2ccccc2)[C@@H]1O	0.84
N=C(N)c1ccc(N2CCN(C3CCN(CC(=O)O)CC3)CC2)cc1	1.66
CCNC(=O)C1OC(n2cnc3c(N)nc(NCCc4ccc(CCC(=O)O)cc4)nc32)C(O)C1O (centres undefined)	2.87
Clc1ccc(CSC(Cn2ccnc2)c2ccc(Cl)cc2Cl)cc1 (centres undefined)	2.22
C/C=C(\C)C(=O)OC1CCC(=O)OC1/C=C/C(O)C(C)O (centres undefined)	0.389
C/C=C(/C)C(=O)O[C@H]1C[C@@](C)(O)C(=O)[C@@H](OC(=O)/C(C)=C\C)[C@@]2(C)CC[C@@](O)(C(C)C)[C@H]12	1.83 ± 0.59
Cc1cc(O)cc2oc3cc(O)cc(O)c3c(=O)c12	-1.58
C=CCn1c(=O)n(C2OC(CO)C(O)C2O)c2nc(N)[nH]c(=O)c21 (centres undefined)	2.14
O=C(OC1C(c2c(O)cc(O)c(C(=O)c3ccc(O)cc3)c2O)OC(CO)C(O)C1O)c1cc(O)c(O)c(O)c1 (centres undefined)	0.624 ± 0.24
C[C@@H]1O[C@@H](Oc2cc(O)c3c(=O)c(O[C@@H]4O[C@@H](C)[C@H](O)[C@@H](O[C@@H]5OC[C@@H](O)[C@H](O)[C@H]5O)[C@H]4O[C@@H]4O[C@H](CO)[C@@H](O)[C@H](O)[C@H]4O)c(-c4ccc(O)c(O)c4)oc3c2)[C@H](O)[C@H](O)[C@H]1O	1.3
Oc1ccc([C@H]2Oc3cc(O)cc(O)c3C[C@H]2O)cc1	1.71
COc1cc(O)c(C(=O)/C=C/c2ccc(OC)c(OC)c2)c(OC)c1	0.627 ± 2
CO[C@H]1CN(C)C(=O)c2cccc(C#N)c2OC[C@H]2O[C@@H](CC[C@H]2OC)CCN(C)C(=O)[C@H]1C	2.38
OC1(c2ccc(Cl)cc2)CCNCC1	0.736

SMILES	cell shape (Z-score)
CN(C)CCN(Cc1ccccc1)c1ccccn1	2.01
CN(C)CCCC1(c2ccc(F)cc2)OCc2cc(C#N)ccc21 (centres undefined)	-0.667
CC1(C)S[C@@H]2[C@H](NC(=O)Cc3ccccc3)C(=O)N2[C@H]1C(=O)O	-0.81
Nc1ccn([C@@H]2O[C@H](CO)[C@@H](O)C2(F)F)c(=O)n1	-1.18 ± 2.9
CCCN(CCC)CC1CCCCN1CCNC(=O)N1c2ccccc2C(=O)Nc2cccnc21 (centres undefined)	1.21
NCCCCCCNS(=O)(=O)c1cccc2c(Cl)cccc12	2.91
COc1cc2c(ccc3cc(OC)c(OC)c(O)c32)cc1O	0.937
CCN(CC)CCOCCOC(=O)C1(c2ccccc2)CCCC1	1.23
C=C(C(=O)O)C(CCCCCCO)C(=O)O (centres undefined)	1.66
CN1CCN2c3ccccc3Cc3ccccc3C2C1 (centres undefined)	0.466
CC1=NN(c2ccc(C(=O)O)cc2)C(=O)/C1=C/c1ccc(-c2cc(C)c(C)cc2[N+](=O)[O-])o1	5.36
Cc1ccc(OCC(O)C(C)NC(C)C)c2c1CCC2 (centres undefined)	2.52
Cc1ccccc1NC(=N)Nc1ccccc1C	2.28
C=C(c1ccc(C(=O)O)cc1)c1cc2c(cc1C)C(C)(C)CCC2(C)C	4.68 ± 0.93
COc1cc(/C=C/C(=O)OC2CC3CCC2(C)C3(C)C)ccc1O (centres undefined)	8.55
O=C(/C=C/c1ccccc1)CC(=O)/C=C/c1ccccc1	-8.63
CCN(CC)C(=O)c1cccc(C)c1	2.78
COc1c2c(c(C)c3c1C(=O)OC3)OC1(C)CC(O)C(C(C)(C)O)C(C)(CCC(=O)O)C1C2 (centres undefined)	0.417 ± 1.1
C[C@H]1O[C@H](O[C@H]2[C@H](O)[C@@H](O)[C@@H](O[C@H]3[C@H](O)[C@@H](O)C(O)O[C@@H]3CO)O[C@@H]2CO)[C@H](O)[C@@H](O)[C@@H]1N[C@H]1C=C(CO)[C@@H](O)[C@H](O)[C@H]1O (some centres undefined)	-0.306
COC1/C=C/OC2(C)Oc3c(C)c(O)c4c(c3C2=O)C2(C=C(NC(=O)/C(C)=C\C=C\C(C)C(O)C(C)C(O)C(C)C(OC(C)=O)C1C)C4=O)OCC(=O)O2 (centres undefined)	1.4
COc1ccc(NC(=O)c2ccc(-c3ccc(-c4noc(C)n4)cc3C)cc2)cc1N1CCN(C)CC1	-0.626
CC(NC(=O)Cc1cc(F)cc(F)c1)C(=O)NC(C(=O)OC(C)(C)C)c1ccccc1 (centres undefined)	-4.4

Single values from above.
cell shape (Z-score), C=C(C(=O)O)C(CCCCCCO)C(=O)O (centres undefined) reads 1.66
cell shape (Z-score), CN1CCN2c3ccccc3Cc3ccccc3C2C1 (centres undefined) reads 0.466
cell shape (Z-score), CN(C)CCCC1(c2ccc(F)cc2)OCc2cc(C#N)ccc21 (centres undefined) reads -0.667
